# Measured values published in article PMC10634230.
# Amino acid sequences for entries named in this document (tags omitted). Residues count along the entry.
# UniProt Q9NYK1, 27-839, stated change not applied: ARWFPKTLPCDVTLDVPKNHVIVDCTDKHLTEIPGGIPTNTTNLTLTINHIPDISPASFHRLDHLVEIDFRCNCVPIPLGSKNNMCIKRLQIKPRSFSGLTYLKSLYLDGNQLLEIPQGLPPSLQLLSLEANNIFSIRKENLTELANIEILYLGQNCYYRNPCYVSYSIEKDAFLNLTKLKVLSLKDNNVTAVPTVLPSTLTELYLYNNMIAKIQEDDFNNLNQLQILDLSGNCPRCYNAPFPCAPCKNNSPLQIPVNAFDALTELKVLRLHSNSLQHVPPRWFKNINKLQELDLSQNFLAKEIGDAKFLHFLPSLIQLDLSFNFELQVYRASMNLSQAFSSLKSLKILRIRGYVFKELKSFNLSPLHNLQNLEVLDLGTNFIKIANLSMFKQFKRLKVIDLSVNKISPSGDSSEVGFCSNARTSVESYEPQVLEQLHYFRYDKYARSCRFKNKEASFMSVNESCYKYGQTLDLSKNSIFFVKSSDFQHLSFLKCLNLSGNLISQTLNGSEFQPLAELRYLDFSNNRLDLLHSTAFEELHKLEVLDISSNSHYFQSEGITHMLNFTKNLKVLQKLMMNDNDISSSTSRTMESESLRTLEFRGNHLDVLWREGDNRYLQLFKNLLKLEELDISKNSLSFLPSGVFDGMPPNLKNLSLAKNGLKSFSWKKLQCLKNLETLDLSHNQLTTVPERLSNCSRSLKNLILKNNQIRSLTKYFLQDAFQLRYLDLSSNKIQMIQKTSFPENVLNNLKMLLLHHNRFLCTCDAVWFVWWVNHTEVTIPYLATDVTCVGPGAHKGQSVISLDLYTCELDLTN
# Target: TLR7 Fc chimera (recombinant human TLR7) (Homo sapiens) (UniProt Q9NYK1)
# Assay: EMSA
# Details: EMSA: 100 ng RNA, 1 ug TLR7 in 20 uL, 30 min, 5% polyacrylamide gel; commercial protein; protein details: Fc chimera; label: 5' FAM
sequence,measurement,value
UUGAAGGACAGGUUAAGCU [RNA9.2a],binding result,binds more weakly

# Construct, isoform or probe ends are uncertain for at least one entry. The comparison behind a weaker result is the experiment's own reference, which may not be listed here.
